According to patent US4501733A (Ferring Arzneimittel GmbH, priority 1982, dated 1985):

Assay: general procedure: Boc solid-phase peptide synthesis; chloromethyl resin (Boc-amino acid Cs salt, ester bond)
Conditions: whole synthesis, based on the Boc-Met content of the resin

Substance: PEPTIDE1{R.[dP].K.P.Q.Q.[dW].F.[dW].L.M.[am]}$$$$V2.0
- isolated yield: 15% of theory

Strings that start with PEPTIDE1 are HELM notation: dots part the residues, brackets hold end groups and non-standard residues.
